The list shows a part of the results.
What follows are targets tested with CN1CCN(c2nc(C3=C(c4c[nH]c5ccccc45)C(=O)NC3=O)c3ccccc3n2)CC1 [sotrastaurin] (assay: log2 fold change, soluble protein after heating vs DMSO (PISA); higher = thermal stabilisation; K562 cells, 10 uM, 30 min; active = over 0.2 and 3.5 SD of the protein, either way, in both replicates (recomputed)).
Outline: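 Aliquots of K562 cells (2×10^6 cells/mL) treated with 10 μM compound for 30 min were heated for 3 min over 48°C-58°C. After pooling and extraction in PBS with 0.5% NP-40 at 4°C, soluble protein from a 21,000xg, 90 min spin was quantified by TMTpro 16plex LC-MS/MS with channel sums equalised. Thermal stability is expressed against control samples, from duplicates, as a log2 fold change.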

By UniProt entry, the sequences of proteins in these tests, tags left out. Where a name states a change or a piece, a line headed by the entry shows the natural chain unless it says otherwise.
UniProt Q9Y2K3: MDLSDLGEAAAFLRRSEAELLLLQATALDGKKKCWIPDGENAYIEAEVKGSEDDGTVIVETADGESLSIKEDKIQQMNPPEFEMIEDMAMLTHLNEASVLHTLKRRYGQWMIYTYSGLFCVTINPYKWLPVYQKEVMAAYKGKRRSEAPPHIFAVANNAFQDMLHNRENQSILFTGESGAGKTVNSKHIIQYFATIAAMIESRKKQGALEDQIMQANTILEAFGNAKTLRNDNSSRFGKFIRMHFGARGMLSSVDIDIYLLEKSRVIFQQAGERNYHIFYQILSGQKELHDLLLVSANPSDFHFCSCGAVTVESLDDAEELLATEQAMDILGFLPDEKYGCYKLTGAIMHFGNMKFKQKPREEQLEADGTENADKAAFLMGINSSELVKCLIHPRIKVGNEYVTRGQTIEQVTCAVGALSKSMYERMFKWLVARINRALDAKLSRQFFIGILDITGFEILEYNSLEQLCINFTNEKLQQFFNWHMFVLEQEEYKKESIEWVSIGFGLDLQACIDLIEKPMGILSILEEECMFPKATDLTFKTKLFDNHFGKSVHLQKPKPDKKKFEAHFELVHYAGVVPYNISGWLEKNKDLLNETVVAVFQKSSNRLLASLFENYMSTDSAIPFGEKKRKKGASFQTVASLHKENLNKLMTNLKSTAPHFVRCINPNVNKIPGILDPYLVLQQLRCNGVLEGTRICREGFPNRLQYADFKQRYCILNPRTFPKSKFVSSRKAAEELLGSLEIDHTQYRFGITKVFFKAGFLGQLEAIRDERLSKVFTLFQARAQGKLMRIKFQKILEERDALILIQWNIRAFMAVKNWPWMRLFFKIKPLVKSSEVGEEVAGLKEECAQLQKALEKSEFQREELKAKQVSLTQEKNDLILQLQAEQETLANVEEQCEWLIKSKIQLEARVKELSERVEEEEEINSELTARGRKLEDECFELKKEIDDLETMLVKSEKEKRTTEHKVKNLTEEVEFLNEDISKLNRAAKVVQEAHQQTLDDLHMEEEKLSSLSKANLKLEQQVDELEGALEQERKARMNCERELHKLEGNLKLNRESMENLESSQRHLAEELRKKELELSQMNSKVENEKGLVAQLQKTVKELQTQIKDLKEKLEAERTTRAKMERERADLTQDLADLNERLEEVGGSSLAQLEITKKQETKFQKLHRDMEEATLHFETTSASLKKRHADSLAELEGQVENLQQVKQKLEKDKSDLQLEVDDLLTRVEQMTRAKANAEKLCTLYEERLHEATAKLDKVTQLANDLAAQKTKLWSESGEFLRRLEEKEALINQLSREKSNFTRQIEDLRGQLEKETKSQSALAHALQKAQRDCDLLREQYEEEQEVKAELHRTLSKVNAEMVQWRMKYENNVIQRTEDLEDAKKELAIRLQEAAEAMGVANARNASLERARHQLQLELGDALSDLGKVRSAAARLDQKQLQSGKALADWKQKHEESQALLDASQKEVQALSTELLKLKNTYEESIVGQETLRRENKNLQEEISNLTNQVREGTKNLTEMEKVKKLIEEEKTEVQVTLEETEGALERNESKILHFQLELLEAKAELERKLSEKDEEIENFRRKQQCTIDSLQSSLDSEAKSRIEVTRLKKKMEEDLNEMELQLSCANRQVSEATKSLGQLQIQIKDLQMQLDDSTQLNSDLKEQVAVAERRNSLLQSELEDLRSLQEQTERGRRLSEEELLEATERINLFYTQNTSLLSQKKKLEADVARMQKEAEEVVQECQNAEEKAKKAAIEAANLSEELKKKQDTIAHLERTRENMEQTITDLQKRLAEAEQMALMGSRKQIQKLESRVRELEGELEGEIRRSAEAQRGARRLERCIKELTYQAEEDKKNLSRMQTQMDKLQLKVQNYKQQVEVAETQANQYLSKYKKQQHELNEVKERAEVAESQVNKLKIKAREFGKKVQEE
UniProt Q96DP5: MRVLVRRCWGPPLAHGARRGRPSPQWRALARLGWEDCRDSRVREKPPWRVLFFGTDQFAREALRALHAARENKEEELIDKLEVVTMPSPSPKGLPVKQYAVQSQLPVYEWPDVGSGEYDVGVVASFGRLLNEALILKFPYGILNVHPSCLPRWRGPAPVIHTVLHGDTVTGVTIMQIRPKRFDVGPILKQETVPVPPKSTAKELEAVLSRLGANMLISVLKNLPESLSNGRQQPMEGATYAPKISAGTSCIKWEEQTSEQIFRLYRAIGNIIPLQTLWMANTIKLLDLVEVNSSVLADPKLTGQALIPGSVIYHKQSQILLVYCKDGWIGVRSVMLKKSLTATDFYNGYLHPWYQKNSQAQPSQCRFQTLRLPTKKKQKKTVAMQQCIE
UniProt Q9NXD2: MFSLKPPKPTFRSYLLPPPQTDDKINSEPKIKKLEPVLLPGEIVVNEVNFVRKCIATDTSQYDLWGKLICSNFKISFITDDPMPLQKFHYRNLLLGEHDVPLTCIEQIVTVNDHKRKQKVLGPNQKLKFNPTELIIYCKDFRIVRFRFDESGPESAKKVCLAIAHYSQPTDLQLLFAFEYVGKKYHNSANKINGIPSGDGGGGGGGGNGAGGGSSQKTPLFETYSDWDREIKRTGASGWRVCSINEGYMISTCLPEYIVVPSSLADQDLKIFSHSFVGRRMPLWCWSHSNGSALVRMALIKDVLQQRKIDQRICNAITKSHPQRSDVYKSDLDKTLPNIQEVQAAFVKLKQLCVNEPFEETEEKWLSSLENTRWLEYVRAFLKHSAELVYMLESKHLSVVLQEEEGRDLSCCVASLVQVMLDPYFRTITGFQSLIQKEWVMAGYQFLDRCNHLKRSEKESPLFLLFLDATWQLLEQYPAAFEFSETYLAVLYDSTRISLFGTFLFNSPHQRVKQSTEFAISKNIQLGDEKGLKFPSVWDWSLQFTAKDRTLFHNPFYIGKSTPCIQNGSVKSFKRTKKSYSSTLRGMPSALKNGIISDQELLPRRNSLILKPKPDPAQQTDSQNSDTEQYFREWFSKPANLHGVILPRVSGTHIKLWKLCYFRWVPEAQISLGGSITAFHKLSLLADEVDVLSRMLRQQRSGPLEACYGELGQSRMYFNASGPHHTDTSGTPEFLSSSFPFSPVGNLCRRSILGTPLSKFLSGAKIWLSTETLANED
UniProt B2RTY4: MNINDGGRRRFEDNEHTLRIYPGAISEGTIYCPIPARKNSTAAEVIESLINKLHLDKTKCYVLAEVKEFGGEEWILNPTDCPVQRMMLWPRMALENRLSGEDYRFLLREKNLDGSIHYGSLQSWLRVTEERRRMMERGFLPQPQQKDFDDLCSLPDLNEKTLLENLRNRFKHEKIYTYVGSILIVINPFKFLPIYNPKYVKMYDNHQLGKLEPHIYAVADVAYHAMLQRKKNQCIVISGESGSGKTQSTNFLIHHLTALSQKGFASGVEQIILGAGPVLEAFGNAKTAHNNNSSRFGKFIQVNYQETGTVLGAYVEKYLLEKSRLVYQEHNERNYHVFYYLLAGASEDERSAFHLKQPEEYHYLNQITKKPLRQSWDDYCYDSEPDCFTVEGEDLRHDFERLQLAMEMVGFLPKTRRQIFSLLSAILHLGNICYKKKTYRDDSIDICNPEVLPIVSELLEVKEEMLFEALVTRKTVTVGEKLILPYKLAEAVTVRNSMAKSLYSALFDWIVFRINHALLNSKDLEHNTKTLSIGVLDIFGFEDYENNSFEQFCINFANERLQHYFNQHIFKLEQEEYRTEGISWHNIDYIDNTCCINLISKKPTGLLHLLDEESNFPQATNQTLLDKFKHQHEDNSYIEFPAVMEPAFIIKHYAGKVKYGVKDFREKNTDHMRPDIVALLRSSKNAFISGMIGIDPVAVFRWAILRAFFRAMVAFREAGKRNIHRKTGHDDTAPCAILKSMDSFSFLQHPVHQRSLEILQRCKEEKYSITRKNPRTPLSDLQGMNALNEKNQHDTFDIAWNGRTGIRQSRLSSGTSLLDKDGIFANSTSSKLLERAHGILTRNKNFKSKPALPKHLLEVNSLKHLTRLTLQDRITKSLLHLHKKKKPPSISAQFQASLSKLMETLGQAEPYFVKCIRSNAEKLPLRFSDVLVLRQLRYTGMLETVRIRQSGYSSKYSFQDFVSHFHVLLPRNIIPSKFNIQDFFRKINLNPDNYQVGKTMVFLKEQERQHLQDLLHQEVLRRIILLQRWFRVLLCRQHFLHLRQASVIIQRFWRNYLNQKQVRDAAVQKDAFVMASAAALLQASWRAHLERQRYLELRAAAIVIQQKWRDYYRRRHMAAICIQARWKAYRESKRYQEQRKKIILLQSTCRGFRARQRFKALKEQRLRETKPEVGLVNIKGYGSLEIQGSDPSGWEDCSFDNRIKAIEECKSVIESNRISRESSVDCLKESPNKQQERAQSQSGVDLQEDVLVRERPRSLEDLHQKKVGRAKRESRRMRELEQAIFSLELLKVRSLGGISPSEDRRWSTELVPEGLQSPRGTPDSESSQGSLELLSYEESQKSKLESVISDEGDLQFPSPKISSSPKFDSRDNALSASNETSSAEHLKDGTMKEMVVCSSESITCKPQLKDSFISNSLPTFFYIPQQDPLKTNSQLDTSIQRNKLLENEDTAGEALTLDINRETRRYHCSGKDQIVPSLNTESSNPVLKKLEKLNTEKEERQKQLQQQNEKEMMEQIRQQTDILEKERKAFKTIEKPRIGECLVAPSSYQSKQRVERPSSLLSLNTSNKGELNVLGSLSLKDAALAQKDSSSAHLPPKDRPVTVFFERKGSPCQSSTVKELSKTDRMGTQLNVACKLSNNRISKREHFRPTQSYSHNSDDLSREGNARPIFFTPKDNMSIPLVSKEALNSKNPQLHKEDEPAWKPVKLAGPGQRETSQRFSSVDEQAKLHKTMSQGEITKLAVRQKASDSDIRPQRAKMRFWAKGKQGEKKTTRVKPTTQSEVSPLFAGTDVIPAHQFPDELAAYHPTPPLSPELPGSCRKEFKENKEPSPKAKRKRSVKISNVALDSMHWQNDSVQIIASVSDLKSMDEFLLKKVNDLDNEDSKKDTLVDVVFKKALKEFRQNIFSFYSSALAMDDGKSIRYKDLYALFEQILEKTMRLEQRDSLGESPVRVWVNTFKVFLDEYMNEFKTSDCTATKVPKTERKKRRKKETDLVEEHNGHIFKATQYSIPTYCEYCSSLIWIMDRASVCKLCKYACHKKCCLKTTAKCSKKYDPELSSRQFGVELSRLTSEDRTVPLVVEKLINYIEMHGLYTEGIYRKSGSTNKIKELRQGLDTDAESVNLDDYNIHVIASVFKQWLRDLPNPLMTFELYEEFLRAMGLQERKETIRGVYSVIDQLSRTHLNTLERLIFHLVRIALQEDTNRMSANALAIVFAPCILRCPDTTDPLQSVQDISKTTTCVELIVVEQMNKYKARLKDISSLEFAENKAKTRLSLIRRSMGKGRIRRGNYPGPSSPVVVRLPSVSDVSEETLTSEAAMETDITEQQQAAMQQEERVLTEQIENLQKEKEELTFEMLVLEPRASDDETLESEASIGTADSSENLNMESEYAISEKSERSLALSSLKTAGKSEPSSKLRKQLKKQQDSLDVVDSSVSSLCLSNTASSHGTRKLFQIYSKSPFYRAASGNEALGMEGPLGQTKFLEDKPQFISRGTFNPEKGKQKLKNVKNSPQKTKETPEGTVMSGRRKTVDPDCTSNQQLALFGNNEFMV
UniProt P46199: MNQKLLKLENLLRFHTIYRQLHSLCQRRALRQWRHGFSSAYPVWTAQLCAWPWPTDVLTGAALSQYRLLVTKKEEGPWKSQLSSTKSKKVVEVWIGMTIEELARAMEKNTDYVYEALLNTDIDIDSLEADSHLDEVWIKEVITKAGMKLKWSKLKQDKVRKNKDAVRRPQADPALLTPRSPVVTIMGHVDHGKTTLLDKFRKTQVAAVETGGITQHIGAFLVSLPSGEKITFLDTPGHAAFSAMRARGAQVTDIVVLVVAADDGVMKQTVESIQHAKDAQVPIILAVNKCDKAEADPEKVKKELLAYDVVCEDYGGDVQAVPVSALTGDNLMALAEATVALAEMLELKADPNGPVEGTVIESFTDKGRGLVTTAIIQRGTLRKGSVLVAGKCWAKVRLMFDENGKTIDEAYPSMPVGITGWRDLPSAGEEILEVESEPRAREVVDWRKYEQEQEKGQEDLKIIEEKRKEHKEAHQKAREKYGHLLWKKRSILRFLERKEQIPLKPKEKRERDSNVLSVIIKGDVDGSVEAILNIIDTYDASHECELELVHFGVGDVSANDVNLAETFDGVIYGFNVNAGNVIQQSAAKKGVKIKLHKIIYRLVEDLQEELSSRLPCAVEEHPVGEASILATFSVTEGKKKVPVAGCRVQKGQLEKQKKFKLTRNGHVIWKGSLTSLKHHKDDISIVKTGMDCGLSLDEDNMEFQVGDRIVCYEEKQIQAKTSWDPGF
UniProt P03928: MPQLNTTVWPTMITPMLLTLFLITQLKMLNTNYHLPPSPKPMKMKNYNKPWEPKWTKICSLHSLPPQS

Row | Target | log2 fold change
1 | MYH15 (UniProt Q9Y2K3) | inactive: -0.26
2 | MTFMT (UniProt Q96DP5) | inactive: 0.187
3 | MUC7 (UniProt Q8TAX7) | inactive: 0.054
4 | MYNN (UniProt Q9NPC7) | inactive: 0.048
5 | MTMR10 (UniProt Q9NXD2) | inactive: 0.08
6 | MYO18B isoform 3 (UniProt Q8IUG5) | inactive: -0.053
7 | MRPS16 (UniProt Q9Y3D3) | inactive: -0.039
8 | MYO9A isoform 4 (UniProt B2RTY4) | inactive: -0.092
9 | MTIF2 (UniProt P46199) | inactive: -0.073
10 | MTRF1 (UniProt O75570) | inactive: -0.068
11 | MYD88 isoform 6 (UniProt Q99836) | inactive: -0.092
12 | MTAP isoform 2 (UniProt Q13126) | inactive: 0.097
13 | MT-ATP8 (UniProt P03928) | inactive: 0.101
14 | MXRA8 isoform 2 (UniProt Q9BRK3) | inactive: -0.006
15 | MTMR4 (UniProt Q9NYA4) | inactive: 0.022
16 | MT-CO1 (UniProt P00395) | inactive: 0.022
17 | MRPS36 (UniProt D6R941) | inactive: 0.216
18 | MYH16 (UniProt Q9H6N6) | inactive: -0.224
19 | MSL1 (UniProt Q68DK7) | inactive: 0.052

Records 9 through 10 of the list above:
Row | Target | log2 fold change
9 | MTIF2 (UniProt P46199) | inactive: -0.073
10 | MTRF1 (UniProt O75570) | inactive: -0.068
